# ± gives the standard deviation of the averaged measurements. This is a selection; strong and weak results do not stand in their true shares. Small differences around the control level are noise.
# Chains of the proteins cited; added tags and fusions are not shown. Lines headed by an entry give the natural chain unless they say otherwise; changes in a name come on top.
# UniProt Q1MSJ5: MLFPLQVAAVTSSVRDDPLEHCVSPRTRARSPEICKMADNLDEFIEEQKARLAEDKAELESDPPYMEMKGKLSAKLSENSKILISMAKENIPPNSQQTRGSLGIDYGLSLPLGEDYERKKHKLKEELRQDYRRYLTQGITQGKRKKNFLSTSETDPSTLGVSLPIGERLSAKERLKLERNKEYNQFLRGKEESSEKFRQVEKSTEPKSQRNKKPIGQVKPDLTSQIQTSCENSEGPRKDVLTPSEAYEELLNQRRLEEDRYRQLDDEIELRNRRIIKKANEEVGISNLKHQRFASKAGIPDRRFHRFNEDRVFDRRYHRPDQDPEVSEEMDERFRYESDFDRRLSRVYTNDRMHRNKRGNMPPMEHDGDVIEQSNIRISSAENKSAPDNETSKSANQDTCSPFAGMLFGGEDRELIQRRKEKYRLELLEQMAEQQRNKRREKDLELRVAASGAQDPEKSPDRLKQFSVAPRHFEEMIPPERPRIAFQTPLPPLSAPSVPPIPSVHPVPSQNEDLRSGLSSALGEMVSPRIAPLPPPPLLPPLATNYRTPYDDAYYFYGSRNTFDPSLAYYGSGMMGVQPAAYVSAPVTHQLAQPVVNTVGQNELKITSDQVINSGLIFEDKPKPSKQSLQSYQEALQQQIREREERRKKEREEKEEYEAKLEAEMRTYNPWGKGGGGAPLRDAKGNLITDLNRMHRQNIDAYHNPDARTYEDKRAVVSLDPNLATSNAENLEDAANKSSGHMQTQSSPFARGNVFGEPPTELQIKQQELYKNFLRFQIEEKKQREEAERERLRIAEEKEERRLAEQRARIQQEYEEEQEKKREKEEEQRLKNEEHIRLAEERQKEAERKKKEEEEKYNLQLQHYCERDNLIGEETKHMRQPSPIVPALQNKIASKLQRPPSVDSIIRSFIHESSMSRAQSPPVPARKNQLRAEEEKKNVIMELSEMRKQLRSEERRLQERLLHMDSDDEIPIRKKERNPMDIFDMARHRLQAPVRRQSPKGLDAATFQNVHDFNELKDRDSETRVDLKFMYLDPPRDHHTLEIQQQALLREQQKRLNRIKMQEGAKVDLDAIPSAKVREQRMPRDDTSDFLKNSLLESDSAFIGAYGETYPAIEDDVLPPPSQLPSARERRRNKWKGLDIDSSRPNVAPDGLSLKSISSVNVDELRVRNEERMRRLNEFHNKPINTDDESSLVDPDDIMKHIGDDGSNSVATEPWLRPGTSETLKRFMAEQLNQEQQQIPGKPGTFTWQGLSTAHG
# UniProt Q5T280: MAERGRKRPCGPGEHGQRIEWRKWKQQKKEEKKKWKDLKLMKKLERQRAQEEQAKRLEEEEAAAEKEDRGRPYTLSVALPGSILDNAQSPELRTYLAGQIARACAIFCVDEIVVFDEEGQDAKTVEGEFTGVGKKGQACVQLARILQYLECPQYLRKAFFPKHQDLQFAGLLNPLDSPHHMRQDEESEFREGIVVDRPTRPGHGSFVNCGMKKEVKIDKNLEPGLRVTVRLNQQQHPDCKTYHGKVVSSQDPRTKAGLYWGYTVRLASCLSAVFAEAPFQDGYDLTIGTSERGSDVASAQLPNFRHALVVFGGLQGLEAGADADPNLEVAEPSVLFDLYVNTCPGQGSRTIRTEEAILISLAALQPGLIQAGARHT
# UniProt Q3YEC7: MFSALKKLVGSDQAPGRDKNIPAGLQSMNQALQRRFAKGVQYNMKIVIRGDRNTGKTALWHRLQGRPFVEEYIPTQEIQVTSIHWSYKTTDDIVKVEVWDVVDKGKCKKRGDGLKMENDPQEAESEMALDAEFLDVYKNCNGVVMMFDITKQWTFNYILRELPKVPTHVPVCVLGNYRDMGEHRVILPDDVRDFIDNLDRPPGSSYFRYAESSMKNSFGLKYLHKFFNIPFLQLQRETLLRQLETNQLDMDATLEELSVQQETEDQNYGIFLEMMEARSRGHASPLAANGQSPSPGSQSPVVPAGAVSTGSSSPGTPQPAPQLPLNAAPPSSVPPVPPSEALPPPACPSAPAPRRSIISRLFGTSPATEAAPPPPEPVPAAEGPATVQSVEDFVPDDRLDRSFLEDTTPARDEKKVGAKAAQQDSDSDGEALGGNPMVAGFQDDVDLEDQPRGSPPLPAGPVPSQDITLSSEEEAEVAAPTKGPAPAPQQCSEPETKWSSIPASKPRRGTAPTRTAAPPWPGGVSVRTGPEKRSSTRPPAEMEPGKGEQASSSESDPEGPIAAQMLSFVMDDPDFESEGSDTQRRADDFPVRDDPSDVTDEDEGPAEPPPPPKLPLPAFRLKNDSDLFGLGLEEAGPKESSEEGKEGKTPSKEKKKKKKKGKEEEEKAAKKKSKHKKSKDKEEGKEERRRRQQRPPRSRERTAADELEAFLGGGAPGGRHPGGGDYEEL
# UniProt Q15554: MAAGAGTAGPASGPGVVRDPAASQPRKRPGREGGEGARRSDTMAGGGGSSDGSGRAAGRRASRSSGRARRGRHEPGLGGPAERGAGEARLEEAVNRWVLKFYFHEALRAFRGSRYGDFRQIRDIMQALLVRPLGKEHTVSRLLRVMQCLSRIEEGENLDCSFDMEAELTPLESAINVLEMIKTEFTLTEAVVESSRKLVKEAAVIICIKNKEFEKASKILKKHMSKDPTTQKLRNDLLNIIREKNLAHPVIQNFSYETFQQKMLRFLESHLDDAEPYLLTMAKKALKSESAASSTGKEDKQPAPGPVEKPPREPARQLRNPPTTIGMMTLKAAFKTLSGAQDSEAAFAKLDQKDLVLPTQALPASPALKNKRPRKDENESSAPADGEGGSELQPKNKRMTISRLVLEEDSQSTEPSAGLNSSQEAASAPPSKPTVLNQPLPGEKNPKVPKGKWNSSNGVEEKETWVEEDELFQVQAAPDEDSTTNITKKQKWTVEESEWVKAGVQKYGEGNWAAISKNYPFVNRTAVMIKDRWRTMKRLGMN
# UniProt Q5T160: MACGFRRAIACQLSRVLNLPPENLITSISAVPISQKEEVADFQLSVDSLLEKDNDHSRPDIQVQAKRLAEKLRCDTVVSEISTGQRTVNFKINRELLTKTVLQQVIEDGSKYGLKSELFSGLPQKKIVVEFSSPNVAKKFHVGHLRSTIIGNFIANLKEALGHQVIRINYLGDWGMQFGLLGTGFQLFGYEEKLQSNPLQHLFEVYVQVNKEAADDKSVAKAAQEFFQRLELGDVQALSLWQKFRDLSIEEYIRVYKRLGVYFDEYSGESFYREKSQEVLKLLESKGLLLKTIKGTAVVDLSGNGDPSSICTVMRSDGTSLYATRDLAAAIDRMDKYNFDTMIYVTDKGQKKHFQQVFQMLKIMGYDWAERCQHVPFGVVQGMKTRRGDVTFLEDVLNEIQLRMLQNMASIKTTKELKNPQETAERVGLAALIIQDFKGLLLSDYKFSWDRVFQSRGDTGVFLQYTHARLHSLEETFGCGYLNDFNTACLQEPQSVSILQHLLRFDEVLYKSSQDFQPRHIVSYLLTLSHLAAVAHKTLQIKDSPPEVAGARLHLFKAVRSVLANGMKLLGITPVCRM
# UniProt Q5T0B9: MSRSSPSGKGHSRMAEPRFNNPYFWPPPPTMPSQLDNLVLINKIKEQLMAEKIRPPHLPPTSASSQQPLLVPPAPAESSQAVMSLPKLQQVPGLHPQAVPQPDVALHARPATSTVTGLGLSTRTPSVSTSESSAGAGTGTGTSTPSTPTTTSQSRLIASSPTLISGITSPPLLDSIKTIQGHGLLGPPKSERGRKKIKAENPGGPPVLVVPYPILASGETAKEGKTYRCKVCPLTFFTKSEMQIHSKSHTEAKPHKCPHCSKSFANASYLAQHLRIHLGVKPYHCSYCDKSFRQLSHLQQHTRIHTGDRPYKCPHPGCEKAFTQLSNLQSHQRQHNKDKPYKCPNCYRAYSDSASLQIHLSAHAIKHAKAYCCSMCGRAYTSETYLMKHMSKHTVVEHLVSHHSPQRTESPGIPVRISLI
# UniProt Q5TA45, whole entry: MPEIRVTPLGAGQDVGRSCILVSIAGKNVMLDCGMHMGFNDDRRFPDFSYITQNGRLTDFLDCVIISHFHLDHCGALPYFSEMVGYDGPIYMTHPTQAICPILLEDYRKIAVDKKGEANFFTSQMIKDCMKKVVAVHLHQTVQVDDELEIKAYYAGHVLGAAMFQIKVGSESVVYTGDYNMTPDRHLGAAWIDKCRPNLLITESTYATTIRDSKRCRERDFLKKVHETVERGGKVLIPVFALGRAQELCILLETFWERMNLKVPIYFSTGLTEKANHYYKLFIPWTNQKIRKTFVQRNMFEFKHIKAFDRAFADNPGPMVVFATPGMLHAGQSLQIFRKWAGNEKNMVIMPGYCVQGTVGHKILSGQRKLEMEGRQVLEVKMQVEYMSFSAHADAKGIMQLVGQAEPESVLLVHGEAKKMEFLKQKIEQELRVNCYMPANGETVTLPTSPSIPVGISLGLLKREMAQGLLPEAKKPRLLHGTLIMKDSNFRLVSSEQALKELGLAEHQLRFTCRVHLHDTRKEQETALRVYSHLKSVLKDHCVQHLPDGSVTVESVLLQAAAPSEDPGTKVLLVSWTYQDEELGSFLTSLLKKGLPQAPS
# UniProt Q9Y6H1: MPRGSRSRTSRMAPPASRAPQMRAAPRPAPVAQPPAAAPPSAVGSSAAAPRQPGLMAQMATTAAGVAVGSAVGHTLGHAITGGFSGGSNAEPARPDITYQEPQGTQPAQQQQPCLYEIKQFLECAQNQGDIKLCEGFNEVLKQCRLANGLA
# UniProt Q56VL3: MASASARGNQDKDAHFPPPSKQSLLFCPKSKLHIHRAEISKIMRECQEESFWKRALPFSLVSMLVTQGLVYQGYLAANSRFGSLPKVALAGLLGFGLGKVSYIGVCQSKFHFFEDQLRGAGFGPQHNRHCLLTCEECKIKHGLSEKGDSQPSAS
# UniProt Q5RKV6, whole entry: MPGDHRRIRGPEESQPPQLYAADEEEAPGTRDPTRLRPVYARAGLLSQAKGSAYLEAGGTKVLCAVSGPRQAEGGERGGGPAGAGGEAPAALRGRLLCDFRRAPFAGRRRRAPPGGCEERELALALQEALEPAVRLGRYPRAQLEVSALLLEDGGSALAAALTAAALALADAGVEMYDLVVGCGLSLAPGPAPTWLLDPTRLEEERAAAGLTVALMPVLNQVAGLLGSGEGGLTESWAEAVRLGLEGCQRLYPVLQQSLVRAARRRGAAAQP
# UniProt Q15545, whole entry: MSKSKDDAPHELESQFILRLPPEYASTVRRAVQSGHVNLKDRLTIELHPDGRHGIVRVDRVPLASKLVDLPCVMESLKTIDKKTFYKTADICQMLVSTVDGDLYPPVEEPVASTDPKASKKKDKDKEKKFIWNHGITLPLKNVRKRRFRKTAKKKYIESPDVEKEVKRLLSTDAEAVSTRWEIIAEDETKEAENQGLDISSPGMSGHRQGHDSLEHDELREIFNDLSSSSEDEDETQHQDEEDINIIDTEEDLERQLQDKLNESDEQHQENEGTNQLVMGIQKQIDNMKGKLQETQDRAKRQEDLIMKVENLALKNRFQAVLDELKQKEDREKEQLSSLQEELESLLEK
# UniProt Q17RN3: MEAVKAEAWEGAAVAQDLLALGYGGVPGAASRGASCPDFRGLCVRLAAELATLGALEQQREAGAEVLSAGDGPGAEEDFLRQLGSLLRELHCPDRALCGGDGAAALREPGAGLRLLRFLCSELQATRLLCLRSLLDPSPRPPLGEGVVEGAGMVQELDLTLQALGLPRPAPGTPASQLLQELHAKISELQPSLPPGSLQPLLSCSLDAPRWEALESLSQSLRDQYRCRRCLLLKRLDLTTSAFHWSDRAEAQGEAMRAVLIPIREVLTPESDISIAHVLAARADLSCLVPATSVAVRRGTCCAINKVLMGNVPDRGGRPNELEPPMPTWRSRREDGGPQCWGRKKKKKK
# Compound: Nc1ncnc2c1ncn2[C@@H]1O[C@H](COP(=O)(O)OP(=O)(O)NP(=O)(O)O)[C@@H](O)[C@H]1O [adenylyl imidodiphosphate]
# Assay: NP40-soluble protein abundance relative to vehicle (solubility fold change) (ratio); higher = more soluble protein in presence of AMP-PNP
# How it was run: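 Eight concentrations, 0.1 to 10 mM, were tested on Jurkat crude lysate for 10 min at room temperature and then 3 min at 37 °C, in three independent experiments. The lysate was solubilised with 0.8% NP40 and benzonase, ultracentrifuged, and the supernatant TMT-labelled for LC-MS/MS. Each value is the fold change against the detergent-processed vehicle in its own replicate, from vsn-normalised intensities.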
Target,NP40-soluble protein abundance (concentration: 0.1mM),NP40-soluble protein abundance (concentration: 0.5mM)
UniProt Q15329 and related entries,0.972 ± 0.013,0.976 ± 0.044
QPRT (UniProt Q15274),0.98 ± 0.015,0.974 ± 0.042
TTF1 (UniProt Q15361),0.983 ± 0.012,0.971 ± 0.029
UniProt Q15398-3|Q15398,0.982 ± 0.017,0.979 ± 0.034
UniProt Q2PPJ7 and related entries,0.961 ± 0.063,1.03 ± 0.14
UniProt Q2TAY7,1.03 ± 0.063,1.03 ± 0.081
RIF1 (UniProt Q5UIP0),0.964 ± 0.025,0.993 ± 0.038
UniProt Q2T9J0 and related entries,1.01 ± 0.014,1.01 ± 0.037
UniProt Q53F19,0.977 ± 0.025,0.978 ± 0.018
UniProt Q3ZCQ8 and related entries,0.985 ± 0.037,0.998 ± 0.049
RABEP1 (UniProt Q15276),0.97 ± 0.034,0.996 ± 0.026
UniProt Q15642-2|Q15642-3|Q15642-4|W4VSQ9 and related entries,1.061 ± 0.0058,1.07 ± 0.043
UniProt Q5TC82 and related entries,1.01 ± 0.027,1 ± 0.02
UniProt Q5HYK3 and related entries,0.976 ± 0.025,0.969 ± 0.027
SEC23B (UniProt Q15437),1.05 ± 0.025,1.02 ± 0.056
UniProt Q1MSJ5 and related entries,1.033 ± 0.01,1.02 ± 0.0076
Q5QPM7 and related entries (UniProt Q92530),1 ± 0.011,1.01 ± 0.066
Q5JWM4 and related entries (UniProt Q9H6P5),0.983 ± 0.046,0.991 ± 0.029
UniProt Q15596 and related entries,1.01 ± 0.053,0.98 ± 0.051
UniProt Q2M296 and related entries,0.978 ± 0.014,0.98 ± 0.0079
GRIPAP1 (UniProt Q4V328),0.977 ± 0.018,0.985 ± 0.051
UniProt Q2KHR2 and related entries,0.999 ± 0.032,0.996 ± 0.027
RABL3 (UniProt Q5HYI8),1.02 ± 0.012,1.01 ± 0.017
MED1 (UniProt Q15648),1.02 ± 0.014,1.02 ± 0.025

# Two neighbouring records already listed:
Target,NP40-soluble protein abundance (concentration: 0.1mM),NP40-soluble protein abundance (concentration: 0.5mM)
UniProt Q53F19,0.977 ± 0.025,0.978 ± 0.018
UniProt Q3ZCQ8 and related entries,0.985 ± 0.037,0.998 ± 0.049

# Next part

Target,NP40-soluble protein abundance (concentration: 0.1mM),NP40-soluble protein abundance (concentration: 0.5mM)
TSR1 (UniProt Q2NL82),0.946 ± 0.035,0.883 ± 0.017
ZNF800 (UniProt Q2TB10),1 ± 0.015,1.04 ± 0.015
CROCC (UniProt Q5TZA2),0.977 ± 0.012,0.979 ± 0.032
PPP2R5A (UniProt Q15172),1.01 ± 0.017,0.9911 ± 0.0062
TP53I3 (UniProt Q53FA7),0.967 ± 0.01,1.01 ± 0.033
Q15392 and related entries (UniProt Q3LIE7+Q15392),1.05 ± 0.026,1.02 ± 0.16
MAN2A1 (UniProt Q16706),0.977 ± 0.017,0.953 ± 0.04
Q5JTV1 and related entries (UniProt Q9UKD1),0.991 ± 0.027,0.977 ± 0.048
E2F4 (UniProt Q16254),0.976 ± 0.027,0.974 ± 0.037
HSD17B12 (UniProt Q53GQ0),1 ± 0.042,1.01 ± 0.074
UniProt Q5T280,0.987 ± 0.013,1.02 ± 0.02
HERC1 (UniProt Q15751),0.958 ± 0.071,0.954 ± 0.017
RHEB (UniProt Q15382),0.973 ± 0.013,1.02 ± 0.011
UniProt Q5T1V6 and related entries,1.01 ± 0.013,0.991 ± 0.051
TAF11 (UniProt Q15544),1.012 ± 0.0031,1.03 ± 0.011
ACSF3 (UniProt Q4G176),1.02 ± 0.042,0.998 ± 0.1
UniProt Q5GLZ8 and related entries,1 ± 0.052,0.997 ± 0.071
UniProt Q16643 and related entries,1.01 ± 0.039,1.15 ± 0.048
UniProt Q15782-5|H0YE91 and related entries,0.903 ± 0.031,0.872 ± 0.074
TRMT5 (UniProt Q32P41),0.984 ± 0.011,1 ± 0.068
ZC3H12A (UniProt Q5D1E8),0.998 ± 0.012,0.9939 ± 0.0044
UniProt Q5JTH9 and related entries,1.01 ± 0.027,1.01 ± 0.023
UniProt Q3YEC7,1 ± 0.03,0.998 ± 0.035
UniProt Q5SWX8,0.996 ± 0.03,1 ± 0.021

Target,NP40-soluble protein abundance (concentration: 0.1mM),NP40-soluble protein abundance (concentration: 0.5mM)
ETFDH (UniProt Q16134),1.008 ± 0.0017,0.9962 ± 0.0088
TERF2 (UniProt Q15554),0.996 ± 0.025,1.05 ± 0.031
UniProt Q5JSZ5,1.03 ± 0.044,1.02 ± 0.026
RARS2 (UniProt Q5T160),0.978 ± 0.036,0.984 ± 0.076
UniProt Q15424 and related entries,1.01 ± 0.035,1.05 ± 0.023
UBE2V2 (UniProt Q15819),1.01 ± 0.044,1.01 ± 0.048
UniProt Q5T0B9,0.989 ± 0.02,1.01 ± 0.04
TMED2 (UniProt Q15363),0.997 ± 0.066,0.992 ± 0.13
UniProt Q5THK1 and related entries,0.998 ± 0.0075,0.976 ± 0.037
UniProt Q15435 and related entries,0.992 ± 0.041,1.01 ± 0.038
UniProt Q15669,0.981 ± 0.019,0.987 ± 0.0086
UniProt Q4G0J3 and related entries,1.01 ± 0.069,1.02 ± 0.051
UniProt Q5JVF3 and related entries,0.979 ± 0.021,0.983 ± 0.027
UniProt Q15149 and related entries,1.04 ± 0.045,1.02 ± 0.011
ZNHIT3 (UniProt Q15649),0.986 ± 0.019,1.005 ± 0.0093
UniProt Q5T8P6 and related entries,1.02 ± 0.03,1.03 ± 0.027
HSP90AA4P (UniProt Q58FG1),0.936 ± 0.034,0.856 ± 0.029
VMA21 (UniProt Q3ZAQ7),0.985 ± 0.025,0.9425 ± 0.0084
UniProt Q15652 and related entries,0.9848 ± 0.0088,0.984 ± 0.022
UniProt Q16630-2|Q16630,1.04 ± 0.013,1.05 ± 0.029
TSC22D1 (UniProt Q15714),0.9824 ± 0.0027,1 ± 0.044
Q5TBM3 and related entries (UniProt Q92598),0.978 ± 0.023,1.02 ± 0.052
UniProt Q52LJ0-2,0.977 ± 0.049,0.974 ± 0.044
GFOD2 (UniProt Q3B7J2),0.996 ± 0.019,1.002 ± 0.0037

Target,NP40-soluble protein abundance (concentration: 0.1mM),NP40-soluble protein abundance (concentration: 0.5mM)
UniProt Q5TA45 and related entries,1.02 ± 0.066,0.997 ± 0.039
TRIP4 (UniProt Q15650),0.989 ± 0.017,0.995 ± 0.039
MEX3C (UniProt Q5U5Q3),0.9933 ± 0.0067,1 ± 0.021
UniProt Q3T8J9 and related entries,0.982 ± 0.042,0.98 ± 0.019
UniProt Q15286,0.972 ± 0.044,0.976 ± 0.037
CDCA8 (UniProt Q53HL2),1.03 ± 0.025,1.02 ± 0.053
UniProt Q5EBL8 and related entries,1.005 ± 0.0023,1.01 ± 0.028
BOLA3 (UniProt Q53S33),0.945 ± 0.038,0.9745 ± 0.0023
UniProt Q15542 and related entries,1.02 ± 0.039,1.02 ± 0.02
UniProt Q5T0N5-4,0.995 ± 0.01,0.986 ± 0.033
UniProt Q15777 and related entries,0.997 ± 0.027,0.99 ± 0.041
QRICH1 (UniProt Q2TAL8),0.964 ± 0.018,0.995 ± 0.02
UniProt Q4AE62 and related entries,1.01 ± 0.037,0.988 ± 0.026
COX19 (UniProt Q49B96),1.029 ± 0.0041,0.989 ± 0.047
UniProt Q5T011 and related entries,0.815 ± 0.029,0.792 ± 0.046
UniProt Q16537 and related entries,0.997 ± 0.027,0.962 ± 0.043
Q5T1J5 and related entries (UniProt Q9Y6H1+Q5T1J5),1.06 ± 0.027,1.02 ± 0.048
UniProt Q5R372 and related entries,0.952 ± 0.032,0.9412 ± 0.0094
OCIAD2 (UniProt Q56VL3),0.988 ± 0.02,1 ± 0.034
Q5SZG2 and related entries (UniProt Q8TAK5),0.9902 ± 0.0032,1 ± 0.016
TOR2A (UniProt Q5JU69),0.994 ± 0.011,1.02 ± 0.025
EXOSC6 (UniProt Q5RKV6),1.03 ± 0.018,1.04 ± 0.018
TRMT12 (UniProt Q53H54),1 ± 0.062,0.997 ± 0.063
TOMM34 (UniProt Q15785),0.988 ± 0.024,1.02 ± 0.062

# Full records, quoted from the list. Values in the order: NP40-soluble protein abundance (concentration: 0.1mM)	NP40-soluble protein abundance (concentration: 0.5mM)
# UniProt Q5T0N5-4 is listed with 0.995 ± 0.01	0.986 ± 0.033
# OCIAD2 (UniProt Q56VL3) is listed with 0.988 ± 0.02	1 ± 0.034
# UniProt Q15777 and related entries is listed with 0.997 ± 0.027	0.99 ± 0.041
# TOR2A (UniProt Q5JU69) is listed with 0.994 ± 0.011	1.02 ± 0.025

# Next results:

Target,NP40-soluble protein abundance (concentration: 0.1mM),NP40-soluble protein abundance (concentration: 0.5mM)
UniProt Q16512 and related entries,1.01 ± 0.039,1.03 ± 0.05
UniProt Q16513 and related entries,0.985 ± 0.019,0.985 ± 0.055
TAF7 (UniProt Q15545),1 ± 0.017,1.05 ± 0.039
UniProt Q2KHT3 and related entries,0.921 ± 0.049,0.936 ± 0.049
SF3A1 (UniProt Q15459),0.995 ± 0.022,1.02 ± 0.024
UAP1L1 (UniProt Q3KQV9),1.01 ± 0.012,0.981 ± 0.024
UniProt Q4LE39 and related entries,1 ± 0.054,0.997 ± 0.051
UniProt Q5TDH0 and related entries,1.01 ± 0.031,0.992 ± 0.026
UniProt Q16555 and related entries,1.01 ± 0.015,1.007 ± 0.0085
HP1BP3 (UniProt Q5SSJ5),0.992 ± 0.039,0.99 ± 0.042
UniProt Q58A45 and related entries,1.01 ± 0.043,1.01 ± 0.049
AARS2 (UniProt Q5JTZ9),1.04 ± 0.042,0.98 ± 0.03
UniProt Q5T6F0,0.925 ± 0.071,0.919 ± 0.0094
UniProt Q15365,0.993 ± 0.03,1.01 ± 0.041
ARHGAP15 (UniProt Q53QZ3),1.02 ± 0.029,1.02 ± 0.044
TRIP13 (UniProt Q15645),1.03 ± 0.062,0.974 ± 0.053
FAM98C (UniProt Q17RN3),0.988 ± 0.024,0.997 ± 0.035
Q5T5C7 (UniProt P49591),0.866 ± 0.25,0.959 ± 0.095
UniProt Q16514-2|Q16514,1.01 ± 0.024,1.03 ± 0.064
STXBP2 (UniProt Q15833),1 ± 0.026,0.96 ± 0.032
UniProt Q16181 and related entries,0.9853 ± 0.0087,1.03 ± 0.036
Q5THR1 and related entries (UniProt Q9H5Z1),0.9857 ± 0.0027,0.958 ± 0.045
MAPRE1 (UniProt Q15691),0.983 ± 0.045,1.07 ± 0.14
NOM1 (UniProt Q5C9Z4),0.987 ± 0.048,0.9896 ± 0.0072

# From the supplement of paper PMC6411743
